Measurements: patent US10287234B2, “Triglyceride and use thereof” (NITTO PHARMACEUTICAL INDUSTRIES, LTD., priority 2015, dated 2019)

Assay: Sensory evaluation of flavor (taste test) by 10 panelists
Details: 5 mg sample ingested; for Results of taste test: total evaluation: delicious (5 points)-brackish (1 point); for Results of taste test, five tastes: bitter taste / Results of taste test, five tastes: saltiness / Results of taste test, five tastes: sour taste / Results of taste test, five tastes: sweetness / Results of taste test, five tastes: umami taste: strong (5 points)-weak (1 point); for Results of taste test: acridity / Results of taste test: oil odor: weak (5 points)-strong (1 point)
Description: A sensory evaluation of the flavor of compounds (I) of the present invention of Examples 1-3, trilinolein of Comparative Example 1 and HYA of Comparative Example 2 was performed by 10 panelists (hereinafter to be referred to as taste test). The panelists ingested 5 mg of a sample (sample name was kept secret to the panelists during the test), evaluated five tastes (umami taste, bitter taste, sour taste, saltiness, sweetness) respectively for the strength, acridity and oil odor, and made total evaluation.
Each evaluation was marked in the following 5 grades.
Five tastes (umami taste, bitter taste, sour taste, saltiness, sweetness):
Strong (5 points)-weak (1 point)
Acridity: weak (5 points)-strong (1 point)
Oil odor: weak (5 points)-strong (1 point)
Total evaluation: delicious (5 points)-brackish (1 point)
It was also shown that acridity was reduced by converting HYA to triglyceride.

Compound | Results of taste test: total evaluation | Results of taste test, five tastes: bitter taste | Results of taste test, five tastes: saltiness | Results of taste test, five tastes: sour taste | Results of taste test, five tastes: sweetness | Results of taste test, five tastes: umami taste | Results of taste test: acridity | Results of taste test: oil odor
CCCCC/C=C\C/C=C\CCCCCCCC(=O)OCC(COC(=O)CCCCCCCCC(O)C/C=C\CCCCC)OC(=O)CCCCCCC/C=C\C/C=C\CCCCC (stereo not drawn) [Ex. 1, Di(cis, cis-9,12-octadecadienoyl)(10-hydroxy-cis-12-octadecenoyl)glycerol] | 4 points | 1 points | 1.5 points | 1 points | 3.5 points | 3.5 points | 5 points | 4 points
CCCCC/C=C\C/C=C\CCCCCCCC(=O)OC(COC(=O)CCCCCCCCC(O)C/C=C\CCCCC)COC(=O)CCCCCCCCC(O)C/C=C\CCCCC (stereo not drawn) [Ex. 2, Di(10-hydroxy-cis-12-octadecenoyl)(cis, cis-9,12-octadecadienoyl)glycerol] | 4 points | 1 points | 1 points | 1 points | 4 points | 4 points | 5 points | 4.5 points
CCCCC/C=C\C/C=C\CCCCCCCC(=O)OCC(COC(=O)CCCCCCC/C=C\C/C=C\CCCCC)OC(=O)CCCCCCC/C=C\C/C=C\CCCCC [compound 1, Trilinolein, reference compound] | 3 points | 1 points | 1 points | 1 points | 2 points | 2.5 points | 4 points | 2 points
CCCCC/C=C\CC(O)CCCCCCCCC(=O)O (stereo not drawn) [compound 2, 10-Hydroxy-cis-12-octadecenoic Acid, reference compound] | 1 points | 3.5 points | 1 points | 1 points | 1 points | 1.5 points | 1 points | 3.5 points
Tri(10-hydroxy-cis-12-octadecenoyl)glycerol [Ex. 3] | 5 points | 1 points | 1 points | 1 points | 4 points | 4 points | 5 points | 4.5 points
